No constants are given. Whether binding was seen depends on the method and setting. In cells and extracts the contact can be indirect. A yes stands for co-enrichment or nearness to the bait. Other partners may have been found.
B1: TERF1 (mouse shelterin member) (protein, UniProt P70371 1-421)
chain: MAETVSSAARDAPSREGWTDSDSPEQEEVGDDAELLQCQLQLGTPREMENAELVAEVEAVAAGWMLDFLCLSLCRAFRDGRSEDFRRTRDSAEAIIHGLHRLTAYQLKTVYICQFLTRVASGKALDAQFEVDERITPLESALMIWNSIEKEHDKLHDEIKNLIKIQAVAVCMEIGSFKEAEEVFERIFGDPEFYTPLERKLLKIISQKDVFHSLFQHFSYSCMMEKIQSYVGDVLSEKSSTFLMKAATKVVENEKARTQASKDRPDATNTGMDTEVGLNKEKSVNGQQSTETEPLVDTVSSIRSHKNALSQLKHRRAPSDFSRNEARTGTLQCETTMERNRRTSGRNRLCVSENQPDTDDKSGRRKRQTWLWEEDRILKCGVKKYGEGNWAKILSHYKFNNRTSVMLKDRWRTMKRLKLIS
B2: TINF2 (mouse shelterin member) (protein, UniProt Q9QXG9 1-341)
chain: MAPPPGVGPASLRFAAAASWLVVRRRRVEHFPKVVEFLQSLRAAAPGLVCYRHHERLCMSLKAKVVVELILQARPWDQVLNALKHHFPAESRTTKEDRKLLEARENFCLLVKHLSEDPPSSLQELEQDYGESFLVAMEKLLFEYLCQLEKALPPVRAQELQDALSWSQPGSFITSSVALHQYGMDMGWTFPESSTSGSGNLIEPMEESPHQQTRPAFHSPLPKAKLGPHQPASLEHPEHLAGHRFNLAPLGKRKSRSHWTSAKACHKERPTVMLLPFRNMGLPAQDLSNPKSREEPGAASAASVGTEPVCTEEAKTPSRPLGKRALEETPPDSPAASRRTV
B3: ACD (mouse shelterin member) (protein, UniProt Q5EE38 1-416)
chain: MSDSGLLALQPWIRELILGSETLSSPRTGQLLKVLQDSETPGPSSAPDTPDTGAVLLVSDGTHSVRCVVTRNAIDTSDWEEKELGFRGTEGRLLLLQACGLRVQVAQDHAPAEFYLQVDRFNLLPTEQPRIQVTGCNQDSDVQRKLNECLEDHLSESASSSAGLTLSQLLDEVREDQDHRGALVCLAKSCLVLKGPCTTTPLTDWITSGSQALGKAVFTVSGSLLHIPEGEEQILSSTGSSQKARGTSASPSHMPLEESGASVSLLSALATSDPGQMDSSQSPPAVGSTSPRAQAPTSPPCNSTPSSLLLNCSPSLSPLHPAPRSHQSCETRAQAPKLEFQCSFKKRQLLPRTSAQELCSVWEPPERHRDTSAFQYKYETPSASLHTQVQTARLSPQLVAWALNIVMESESELTQV
B4: TERF2IP (protein, UniProt Q9NYB0 1-399)
chain: MAEAMDLGKDPNGPTHSSTLFVRDDGSSMSFYVRPSPAKRRLSTLILHGGGTVCRVQEPGAVLLAQPGEALAEASGDFISTQYILDCVERNERLELEAYRLGPASAADTGSEAKPGALAEGAAEPEPQRHAGRIAFTDADDVAILTYVKENARSPSSVTGNALWKAMEKSSLTQHSWQSLKDRYLKHLRGQEHKYLLGDAPVSPSSQKLKRKAEEDPEAADSGEPQNKRTPDLPEEEYVKEEIQENEEAVKKMLVEATREFEEVVVDESPPDFEIHITMCDDDPPTPEEDSETQPDEEEEEEEEKVSQPEVGAAIKIIRQLMEKFNLDLSTVTQAFLKNSGELEATSAFLASGQRADGYPIWSRQDDIDLQKDDEDTREALVKKFGAQNVARRIEFRKK
B5: POT1 (protein, UniProt Q9NUX5 1-634)
chain: MSLVPATNYIYTPLNQLKGGTIVNVYGVVKFFKPPYLSKGTDYCSVVTIVDQTNVKLTCLLFSGNYEALPIIYKNGDIVRFHRLKIQVYKKETQGITSSGFASLTFEGTLGAPIIPRTSSKYFNFTTEDHKMVEALRVWASTHMSPSWTLLKLCDVQPMQYFDLTCQLLGKAEVDGASFLLKVWDGTRTPFPSWRVLIQDLVLEGDLSHIHRLQNLTIDILVYDNHVHVARSLKVGSFLRIYSLHTKLQSMNSENQTMLSLEFHLHGGTSYGRGIRVLPESNSDVDQLKKDLESANLTANQHSDVICQSEPDDSFPSSGSVSLYEVERCQQLSATILTDHQYLERTPLCAILKQKAPQQYRIRAKLRSYKPRRLFQSVKLHCPKCHLLQEVPHEGDLDIIFQDGATKTPDVKLQNTSLYDSKIWTTKNQKGRKVAVHFVKNNGILPLSNECLLLIEGGTLSEICKLSNKFNSVIPVRSGHEDLELLDLSAPFLIQGTIHHYGCKQCSSLRSIQNLNSLVDKTSWIPSSVAEALGIVPLQYVFVMTFTLDDGTGVLEAYLMDSDKFFQIPASEVLMDDDLQKSVDMIMDMFCPPGIKIDAYPWLECFIKSYNVTNGTDNQICYQIFDTTVAEDVI
B6: TINF2 (protein, UniProt Q9BSI4 1-451)
chain: MATPLVAGPAALRFAAAASWQVVRGRCVEHFPRVLEFLRSLRAVAPGLVRYRHHERLCMGLKAKVVVELILQGRPWAQVLKALNHHFPESGPIVRDPKATKQDLRKILEAQETFYQQVKQLSEAPVDLASKLQELEQEYGEPFLAAMEKLLFEYLCQLEKALPTPQAQQLQDVLSWMQPGVSITSSLAWRQYGVDMGWLLPECSVTDSVNLAEPMEQNPPQQQRLALHNPLPKAKPGTHLPQGPSSRTHPEPLAGRHFNLAPLGRRRVQSQWASTRGGHKERPTVMLFPFRNLGSPTQVISKPESKEEHAIYTADLAMGTRAASTGKSKSPCQTLGGRALKENPVDLPATEQKENCLDCYMDPLRLSLLPPRARKPVCPPSLCSSVITIGDLVLDSDEEENGQGEGKESLENYQKTKFDTLIPTLCEYLPPSGHGAIPVSSCDCRDSSRPL
B7: TERF1, P54274 1-439 (protein)
chain: MAEDVSSAAPSPRGCADGRDADPTEEQMAETERNDEEQFECQELLECQVQVGAPEEEEEEEEDAGLVAEAEAVAAGWMLDFLCLSLCRAFRDGRSEDFRRTRNSAEAIIHGLSSLTACQLRTIYICQFLTRIAAGKTLDAQFENDERITPLESALMIWGSIEKEHDKLHEEIQNLIKIQAIAVCMENGNFKEAEEVFERIFGDPNSHMPFKSKLLMIISQKDTFHSFFQHFSYNHMMEKIKSYVNYVLSEKSSTFLMKAAAKVVESKRTRTITSQDKPSGNDVEMETEANLDTRKSVSDKQSAVTESSEGTVSLLRSHKNLFLSKLQHGTQQQDLNKKERRVGTPQSTKKKKESRRATESRIPVSKSQPVTPEKHRARKRQAWLWEEDKNLRSGVRKYGEGNWSKILLHYKFNNRTSVMLKDRWRTMKKLKLISSDSED

Chains of the proteins cited; added tags and fusions are not shown.
UniProt O35144: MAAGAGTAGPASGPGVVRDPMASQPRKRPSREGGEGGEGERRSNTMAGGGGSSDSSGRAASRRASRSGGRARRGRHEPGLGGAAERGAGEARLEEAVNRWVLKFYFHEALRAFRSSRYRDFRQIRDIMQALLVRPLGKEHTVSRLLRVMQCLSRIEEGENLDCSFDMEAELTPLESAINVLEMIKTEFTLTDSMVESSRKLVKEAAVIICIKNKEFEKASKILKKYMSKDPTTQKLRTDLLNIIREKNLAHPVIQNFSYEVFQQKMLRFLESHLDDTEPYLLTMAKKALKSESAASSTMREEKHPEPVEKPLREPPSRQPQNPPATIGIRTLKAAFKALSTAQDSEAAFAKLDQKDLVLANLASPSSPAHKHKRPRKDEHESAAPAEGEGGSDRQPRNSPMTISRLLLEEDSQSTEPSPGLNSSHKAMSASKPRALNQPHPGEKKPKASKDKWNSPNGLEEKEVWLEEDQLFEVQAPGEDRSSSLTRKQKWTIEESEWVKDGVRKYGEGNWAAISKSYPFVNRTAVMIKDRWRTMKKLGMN

Each binder was assayed against Terf2 (mouse) (mouse (endogenous in liver and R1/E embryonic stem cells)) (UniProt O35144) (assay: affinity purification with mass spectrometry). Settings: not given.
B1 was tested, and the binding was “binds”.
For B2, the binding was “binds”.
For B3, the binding was “binds”.
In the case of B4, the binding is reported as “binds”.

What follows are binders tested against TERF2 (human (endogenous in U2OS)) (UniProt Q15554) (assay: affinity purification with mass spectrometry). Settings: not given.
In the case of B5, the binding is reported as “binds”.
In the case of B4, the binding is reported as “binds”.
With B6 the binding was “binds”.

Biological target: Terf2 (mouse) (mouse (endogenous in liver and R1/E embryonic stem cells)) (UniProt O35144)
Test: affinity purification with mass spectrometry
Settings: not given
Remark: another data set of the same source
B1 was tested, and the binding was “binds”.
In the case of B2, the binding is reported as “binds”.
B3 was tested, and the binding was “binds”.
In the case of B4, the binding is reported as “binds”.

Biological target: T1, TERF2 (human (endogenous in U2OS)), Q15554
T1 chain: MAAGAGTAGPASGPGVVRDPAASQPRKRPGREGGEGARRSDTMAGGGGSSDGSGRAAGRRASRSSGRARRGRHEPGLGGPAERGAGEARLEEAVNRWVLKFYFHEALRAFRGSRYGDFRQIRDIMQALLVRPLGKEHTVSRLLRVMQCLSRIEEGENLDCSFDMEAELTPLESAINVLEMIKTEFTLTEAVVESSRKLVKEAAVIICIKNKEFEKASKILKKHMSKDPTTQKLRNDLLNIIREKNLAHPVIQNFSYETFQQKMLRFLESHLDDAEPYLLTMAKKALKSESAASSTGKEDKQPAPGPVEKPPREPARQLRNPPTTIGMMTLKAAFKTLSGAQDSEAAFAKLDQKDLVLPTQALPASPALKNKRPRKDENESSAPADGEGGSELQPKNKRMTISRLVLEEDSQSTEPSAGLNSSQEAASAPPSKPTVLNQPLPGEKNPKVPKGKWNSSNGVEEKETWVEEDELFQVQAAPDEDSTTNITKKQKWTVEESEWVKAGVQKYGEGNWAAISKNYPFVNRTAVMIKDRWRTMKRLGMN
Test: affinity purification with mass spectrometry
Settings: remark: other sources report otherwise
With B7 the binding was “binds”.
